Measurements reported in publication PMC5817353, “Iron Sulfur and Molybdenum Cofactor Enzymes Regulate the Drosophila Life Cycle by Controlling Cell Metabolism” (Frontiers in Physiology, 2018).
Results are given in words; binding and its absence hold for the method and conditions named. Some entries that bind do so weakly or less than the wild type. For some of these results: Tags and fused reporters may be left off the sequences shown.

Chains of the proteins cited; added tags and fusions are not shown. Lines headed by an entry give the natural chain unless they say otherwise; changes in a name come on top. Residues count along the entry.
UniProt Q9VKD3, residues 54-462: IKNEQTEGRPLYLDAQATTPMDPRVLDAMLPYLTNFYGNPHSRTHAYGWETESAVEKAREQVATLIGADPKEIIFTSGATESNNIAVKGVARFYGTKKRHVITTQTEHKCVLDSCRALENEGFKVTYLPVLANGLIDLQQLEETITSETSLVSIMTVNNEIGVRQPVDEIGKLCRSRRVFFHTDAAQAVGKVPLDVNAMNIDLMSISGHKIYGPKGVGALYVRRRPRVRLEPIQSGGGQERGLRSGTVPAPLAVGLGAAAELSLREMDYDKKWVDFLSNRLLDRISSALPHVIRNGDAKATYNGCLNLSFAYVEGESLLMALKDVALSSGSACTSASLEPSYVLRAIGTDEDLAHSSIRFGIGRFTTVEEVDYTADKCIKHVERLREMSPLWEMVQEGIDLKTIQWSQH
UniProt Q16595, residues 42-210: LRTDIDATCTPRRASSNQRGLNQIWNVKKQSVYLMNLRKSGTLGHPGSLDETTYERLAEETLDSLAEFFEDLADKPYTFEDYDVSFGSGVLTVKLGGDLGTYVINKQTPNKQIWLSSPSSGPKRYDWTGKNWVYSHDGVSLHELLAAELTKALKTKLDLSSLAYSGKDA

T1: Drosophila His6-IscU (Drosophila melanogaster) (UniProt Q9VHK6)
T1 sequence: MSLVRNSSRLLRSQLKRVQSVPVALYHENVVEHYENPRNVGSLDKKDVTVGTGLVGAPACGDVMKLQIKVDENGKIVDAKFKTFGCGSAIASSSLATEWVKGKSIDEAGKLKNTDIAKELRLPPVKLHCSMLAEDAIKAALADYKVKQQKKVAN

T2: Drosophila His6-Isd11 (CG3717) (Drosophila melanogaster) (UniProt O46098)
T2 sequence: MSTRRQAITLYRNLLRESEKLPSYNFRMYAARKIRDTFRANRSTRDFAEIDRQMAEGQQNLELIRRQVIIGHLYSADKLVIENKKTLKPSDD


How the values were obtained:
[1] = target: Drosophila Nfs1^Δ1–53/Isd11/IscU complex (Drosophila melanogaster, UniProt Q9VKD3 54-462; O46098 1-92; Q9VHK6 1-154); test: SEC; human frataxin added to the purified Nfs1^Δ1–53/Isd11/IscU complex; analytical Superdex200 column, fractions compared by SDS-PAGE; binding shown by a further increase in size; both purified
[2] = target: T1, Drosophila His6-IscU (Drosophila melanogaster); test: affinity co-purification of co-expressed proteins + SEC; Nfs1^Δ1–53 co-expressed with Isd11 and/or IscU in E. coli; complexes purified by affinity chromatography; 30 μM Nfs1^Δ1–53 applied onto an analytical Superdex200 column, fractions compared by SDS-PAGE
[3] = target: T2, Drosophila His6-Isd11 (CG3717) (Drosophila melanogaster); test: as above

| binding [2] | binding [3] | Molecule | binding [1] |
| --- | --- | --- | --- |
| – | – | human frataxin (FXN) (from UniProt Q16595 42-210) | binds |
| binds | binds | Drosophila Nfs1^Δ1–53 (L-cysteine desulfurase, CG12264, first 53 amino acids removed) (from UniProt Q9VKD3 54-462) (enzyme) | – |
| binds | – | Drosophila Isd11 (CG3717), no tag named, as in the ternary complex (protein, UniProt O46098 1-92) MSTRRQAITLYRNLLRESEKLPSYNFRMYAARKIRDTFRANRSTRDFAEIDRQMAEGQQNLELIRRQVIIGHLYSADKLVIENKKTLKPSDD | – |
